Construct, isoform or probe ends are uncertain for at least one entry. For some assays here: A weaker result is weaker than the reference pair of the same experiment.
Legend:
[1] = molecular target: Neuropeptide Y (NPY) (UniProt P01303); test: binding assay; details: 5' thiol C6 (disulfide reduced), 3' amino linker, aCSF pH 7.4 (composition by citation), SWV -0.4 to 0.0 V, 30 Hz, IPA 500 Hz in flow cell, assay temperature not stated, commercial protein, label: 3' methylene blue, immobilized on Pt via 5' thiol, single-stranded DNA
[2] = system: Pancreatic polypeptide (PP); test: electrochemical aptasensor (SWV, steady state); details: 1-1000 pg/mL, no significant difference from NPY; 5' thiol C6 (disulfide reduced), 3' amino linker; aCSF pH 7.4 (composition by citation); SWV -0.4 to 0.0 V, 30 Hz; IPA 500 Hz in flow cell; assay temperature not stated; label: 3' methylene blue, immobilized on Pt via 5' thiol; single-stranded DNA
[3] = system: Peptide YY (PYY); test: electrochemical aptasensor (SWV, steady state); details: 1-1000 pg/mL, response lower than NPY; 5' thiol C6 (disulfide reduced), 3' amino linker; aCSF pH 7.4 (composition by citation); SWV -0.4 to 0.0 V, 30 Hz; IPA 500 Hz in flow cell; assay temperature not stated; label: 3' methylene blue, immobilized on Pt via 5' thiol; single-stranded DNA
[4] = system: Somatostatin (SOM); test: electrochemical aptasensor (SWV, steady state); details: 1-1000 pg/mL, response lower than NPY; 5' thiol C6 (disulfide reduced), 3' amino linker; aCSF pH 7.4 (composition by citation); SWV -0.4 to 0.0 V, 30 Hz; IPA 500 Hz in flow cell; assay temperature not stated; label: 3' methylene blue, immobilized on Pt via 5' thiol; single-stranded DNA
[5] = molecular target: Neuropeptide Y (NPY) (UniProt P01303); test: electrochemical aptasensor (SWV, steady state); details: 1-1000 pg/mL, lower NPY response than 4.31, no NPY selectivity; 5' thiol C6 (disulfide reduced), 3' amino linker; aCSF pH 7.4 (composition by citation); SWV -0.4 to 0.0 V, 30 Hz; IPA 500 Hz in flow cell; assay temperature not stated; commercial protein; label: 3' methylene blue, immobilized on Pt via 5' thiol; single-stranded DNA

In the case of “AGCAGCACAGAGGTCAGATGCAAACCACAGCCTGAGTGGTTAGCGTATGTCATTTACGGACCTATGCGTGCTACCGTGAA [Aptamer 4.31]”, the Kd [1] is reported as 300 nM, the binding result [2] is reported as “binds” and the binding result [3] is reported as “binds more weakly”. “AGCAGCACAGAGGTCAGATGCAAACCACAGCCTGAGTGGTTAGCGTATGTCATTTACGGACCTATGCGTGCTACCGTGAA [Aptamer 4.31]”: binds more weakly [4].

In the case of “AGCAGCACAGAGGTCAGATGCGTTTTTTACGGCTGGCAACGGAAGTCAGTTTATTCTTCACCTATGCGTGCTACCGTGAA [Aptamer 4.20]”, the Kd ([1]; aptamer list gives 0.8, Results text order (4.31, 4.13, 4.20) implies 1.0) is reported as 800 nM and the binding result [5] is reported as “binds more weakly”.

In the case of “AGCAGCACAGAGGTCAGATGTGTTAGGCTGGGACACGTATTACACTTACCGTAAATATTTCCTATGCGTGCTACCGTGAA [Aptamer 4.13]”, the Kd ([1]; aptamer list gives 1.0, Results text order (4.31, 4.13, 4.20) implies 0.8) is reported as 1000 nM and the binding result [5] is reported as “binds more weakly”.

From article PMC11127761
